The nature of this data set: self-splicing fitness, log relative to wild type (ln ratio); higher = more splicing; Tetrahymena group I intron in knt gene, E. coli kanamycin selection, DiMSum; sequences stand for … in CUCUCU…GGAGGGAAAAGUUAUCAGGCAUGCACCUGGUAGCUAGUCUUUAAACCAAUAGAUUGCAUCGGUUUAAAAGGCAAGACCGUCAAAUUGCGGGAAAGGGGUCAACAGCCGUUCAGUACCAAGUCUCAGGGGAAACUUUGAGAUGGCCUUGCAAAGGGUAUGGUAAUAAGCUGACGGACAUGGUCCUAACCACGCAGCCAAGUCCUAAGUCAACAGAUCUUCUGUUGAUAUGGAUGCAGUUCACAGACUAAAUGUCGGUCGGGGAAGAUGUAUUCUUCUCAUAAGAUAUAGUCGGACCUCUCCUUAAUGGGAGCUAGCGGAUGAAGUGAUGCAACACUGGAGCCGCUGGGAACUAAUUUGUAUGCGAAAGUAUAUUGAUUAGUUUUGGAGUACUCGUGGUCG
In a few lines: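 The eight P1ex-region nucleotides of an intron in the knt kanamycin-resistance gene on pET-22b(+) were all randomised and the library put into E. coli BL21(DE3). Six replicate transformations were grown overnight at 37°C or 30°C on LB agar with or without 25 μg/mL kanamycin, together with 100 μg/mL carbenicillin, 50 μM IPTG and 0.2% rhamnose. Colonies were pooled and amplicon-sequenced on an Illumina HiSeq 2500. Fitness from DiMSum is the error-weighted combination of wild-type-normalised replicate fold changes, kanamycin over none.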

± gives the uncertainty stated by the source. Many entries were measured with a wide error.

AGUGAGCAAUAUUACGUGCU: the “self-splicing fitness (ln)” value (37 °C) was -1.23 ± 0.7. In the case of GUGGAGCAAUAUUACGCUAC, the “self-splicing fitness (ln)” value runs as follows: (30 °C) -2.94 ± 0.62; (37 °C) -3.05 ± 0.74.

On to ACGAAGCAAUAUUACGAAAC, for which the “self-splicing fitness (ln)” value (37 °C) was -3.13 ± 0.73. For the sequence UUCUAGCAAUAUUACGUAGU, the “self-splicing fitness (ln)” value (30 °C) is -2.76 ± 0.52. Regarding UUUUAGCAAUAUUACGACUC, the “self-splicing fitness (ln)” value runs as follows: (30 °C) -2.56 ± 0.46; (37 °C) -1.73 ± 0.82.

For the sequence AGUGAGCAAUAUUACGCAGA, the “self-splicing fitness (ln)” value (30 °C) is -2.73 ± 0.76. GCAGAGCAAUAUUACGCGCC: the “self-splicing fitness (ln)” value was -3.39 ± 1 (30 °C) and -1.18 ± 0.92 (37 °C).

In the case of AAUGAGCAAUAUUACGUGCC, the “self-splicing fitness (ln)” value (37 °C) is -2.4 ± 0.55. Take GCUCAGCAAUAUUACGCACG: the “self-splicing fitness (ln)” value reads like this: (30 °C) -3.19 ± 0.31; (37 °C) -1.02 ± 0.24. In the same order, the values of UGCUAGCAAUAUUACGUAAG are -2.3 ± 0.19 and -1.35 ± 0.18. In the same order, the values of AAUCAGCAAUAUUACGUUUA are -0.652 ± 0.045 and -0.106 ± 0.06.

On to UUUGAGCAAUAUUACGGAUG, for which the “self-splicing fitness (ln)” value (37 °C) is -3.41 ± 0.6. Turning to UGAGAGCAAUAUUACGUGAA, the “self-splicing fitness (ln)” value is -4.19 ± 0.33 (30 °C) and -2.35 ± 0.27 (37 °C).

As to CCGCAGCAAUAUUACGUAGC, under “30 °C”, the “self-splicing fitness (ln)” value is -4.93 ± 1. The same measure, in the same setting: for CUUAAGCAAUAUUACGGUAA the value was -3.28 ± 0.53. On to GUAGAGCAAUAUUACGAGAC, for which the “self-splicing fitness (ln)” value (37 °C) is -2.66 ± 0.65. With GCAGAGCAAUAUUACGAACA, the “self-splicing fitness (ln)” value (37 °C) was -2.84 ± 0.55. On to UUCUAGCAAUAUUACGAAGU, for which the “self-splicing fitness (ln)” value (30 °C) was -2.71 ± 0.65. Consider GCCGAGCAAUAUUACGCCCC, for which the “self-splicing fitness (ln)” value (37 °C) is -0.356 ± 0.61.

Turning to CGGCAGCAAUAUUACGGUCA, the “self-splicing fitness (ln)” value is, setting by setting: (30 °C) -0.0453 ± 0.068; (37 °C) -0.156 ± 0.083. For CGUAAGCAAUAUUACGUUCC, the “self-splicing fitness (ln)” value (37 °C) was -1.98 ± 1.1. As to GUCUAGCAAUAUUACGCGAC, the “self-splicing fitness (ln)” value (37 °C) was -1.35 ± 0.84. On to AGUCAGCAAUAUUACGAAGA, for which the “self-splicing fitness (ln)” value (30 °C) was -1.49 ± 0.67 and the “self-splicing fitness (ln)” value (37 °C) stood at 0.399 ± 0.52. The corresponding values for CUGUAGCAAUAUUACGCAGA are -4.1 ± 0.59 and -4.37 ± 0.52. Take GUCGAGCAAUAUUACGAUAG: where the note is “37 °C”, the “self-splicing fitness (ln)” value is -3.08 ± 0.61. As for CUCCAGCAAUAUUACGAGCA, the “self-splicing fitness (ln)” value was -2.09 ± 0.54 (30 °C) and -3.64 ± 1 (37 °C). Take UACCAGCAAUAUUACGGUGC: the “self-splicing fitness (ln)” value runs as follows: (30 °C) -3.21 ± 0.12; (37 °C) -2.64 ± 0.2.

For AGAGAGCAAUAUUACGAGCC, the “self-splicing fitness (ln)” value (30 °C) was -2.04 ± 0.57. With GGGCAGCAAUAUUACGCUCU, the “self-splicing fitness (ln)” value (37 °C) is -2.08 ± 0.64.

Consider UGUAAGCAAUAUUACGCUUC, for which the “self-splicing fitness (ln)” value (30 °C) was -4.29 ± 0.72 and the “self-splicing fitness (ln)” value (37 °C) was -3.41 ± 0.73. AUCUAGCAAUAUUACGUGAA: the “self-splicing fitness (ln)” value by setting is: (30 °C) -2.52 ± 0.12; (37 °C) -0.861 ± 0.12.

As to CUGGAGCAAUAUUACGCCAA, the “self-splicing fitness (ln)” value (30 °C) was -2.09 ± 1.4. Turning to UCCCAGCAAUAUUACGUUCC, the “self-splicing fitness (ln)” value runs as follows: (30 °C) -2.26 ± 0.21; (37 °C) -2.44 ± 0.27. CGCGAGCAAUAUUACGCCGC: under “30 °C”, the “self-splicing fitness (ln)” value is -2.21 ± 1.1.

Regarding UUAGAGCAAUAUUACGCUCC, the “self-splicing fitness (ln)” value reads like this: (30 °C) -3.97 ± 0.52; (37 °C) -3.13 ± 0.6. The corresponding values for CGCGAGCAAUAUUACGACUC are -2.91 ± 1.1 and -1.14 ± 0.31. The corresponding values for CACGAGCAAUAUUACGUAAG are -3.62 ± 0.14 and -1.82 ± 0.11.

For UCUGAGCAAUAUUACGACGC, the “self-splicing fitness (ln)” value reads like this: (30 °C) -1.34 ± 0.63; (37 °C) -0.44 ± 1.

For the sequence CCUCAGCAAUAUUACGCUCU, under “37 °C”, the “self-splicing fitness (ln)” value was -2.9 ± 0.53. As to CUAUAGCAAUAUUACGAGCC, the “self-splicing fitness (ln)” value was -3.87 ± 0.52 (30 °C) and -2.82 ± 0.61 (37 °C). Consider AGAGAGCAAUAUUACGUCAU, for which, where the note is “30 °C”, the “self-splicing fitness (ln)” value was -4.81 ± 0.72. Turning to GCCUAGCAAUAUUACGGCCA, the “self-splicing fitness (ln)” value (30 °C) is -1.81 ± 0.33 and the “self-splicing fitness (ln)” value (37 °C) is -1.52 ± 0.35.

As for UUCGAGCAAUAUUACGCAGA, the “self-splicing fitness (ln)” value is -4.08 ± 1 (30 °C) and -2.77 ± 0.54 (37 °C). For the sequence GCAUAGCAAUAUUACGCCGA, the “self-splicing fitness (ln)” value (30 °C) is -4.01 ± 0.53. CUCUAGCAAUAUUACGAUUC: the “self-splicing fitness (ln)” value runs as follows: (30 °C) -4.29 ± 1.1; (37 °C) -3.87 ± 0.72. As to GGGUAGCAAUAUUACGAGGU, the “self-splicing fitness (ln)” value (30 °C) is -4.26 ± 1. In the case of AAUGAGCAAUAUUACGAAGC, the “self-splicing fitness (ln)” value runs as follows: (30 °C) -3.08 ± 0.35; (37 °C) -1.89 ± 0.43. With GCAGAGCAAUAUUACGUUGC, the “self-splicing fitness (ln)” value (30 °C) is -2.79 ± 0.53. Still for that read-out and setting: for AGACAGCAAUAUUACGAAAA the value was -3.23 ± 0.52; for GCUGAGCAAUAUUACGCGAA, -3.53 ± 0.73. As to CCCCAGCAAUAUUACGUCCC, the “self-splicing fitness (ln)” value (37 °C) is -2.3 ± 0.64. Still for that read-out and setting: as for UGGGAGCAAUAUUACGGUGG, the figure is -2.79 ± 1.1. As for GGACAGCAAUAUUACGCUUU, the “self-splicing fitness (ln)” value is -1.39 ± 0.065 (30 °C) and -0.538 ± 0.087 (37 °C). For CAUUAGCAAUAUUACGCAGA, the “self-splicing fitness (ln)” value (30 °C) was -1.32 ± 0.67. Consider CCUCAGCAAUAUUACGUCGC, for which the “self-splicing fitness (ln)” value (30 °C) was -3.88 ± 0.52. Turning to CCUGAGCAAUAUUACGAUAC, the “self-splicing fitness (ln)” value by setting is: (30 °C) -2.85 ± 0.54; (37 °C) -1.95 ± 0.51. For GUUUAGCAAUAUUACGGAGC, the “self-splicing fitness (ln)” value (30 °C) was -3.7 ± 0.53. GUUUAGCAAUAUUACGCUAG: the “self-splicing fitness (ln)” value is -2.38 ± 0.16 (30 °C) and -0.42 ± 0.13 (37 °C).

For the sequence CGUUAGCAAUAUUACGACAG, the “self-splicing fitness (ln)” value by setting is: (30 °C) 0.473 ± 0.14; (37 °C) -0.134 ± 0.15. With CAAUAGCAAUAUUACGAAAA, under “37 °C”, the “self-splicing fitness (ln)” value is -2.79 ± 1.1. For the sequence ACAGAGCAAUAUUACGAUAC, the “self-splicing fitness (ln)” value (37 °C) is -2.82 ± 0.53. Still for that read-out and setting: as for UUCCAGCAAUAUUACGCGCU, the figure is -2.34 ± 0.64.

(Values after the supplement of paper PMC7877785.)
